# Assay results from the supplement of paper PMC8728848.
# The other results are listed elsewhere or left out.
# B1: AT5G17240(42) (Arabidopsis thaliana), Q6NQJ8 (protein)
# chain: MDLEHQTMETFLRWAAEIGISDSIDSSRFRDSCLGHSLSVSDFPDAGGRGLGAARELKKGELVLKVPRKALMTTESIIAKDLKLSDAVNLHNSLSSTQILSVCLLYEMSKEKKSFWYPYLFHIPRDYDLLATFGNFEKQALQVEDAVWATEKATAKCQSEWKEAGSLMKELELKPKFRSFQAWLWASATISSRTLHVPWDSAGCLCPVGDLFNYDAPGDYSNTPQGPESANNVEEAGLVVETHSERLTDGGFEEDVNAYCLYARRNYQLGEQVLLCYGTYTNLELLEHYGFMLEENSNDKVFIPLETSLFSLASSWPKDSLYIHQDGKLSFALISTLRLWLIPQSQRDKSVMRLVYAGSQISVKNEILVMKWMSEKCGSVLRDLPTSVTEDTVLLHNIDKLQDPELRLEQKETEAFGSEVRAFLDANCLWDVTVLSGKPIEFSRKTSRMLSKWRWSVQWRLSYKRTLADCISYCNEKMNNLLGTQDRLRDL
# Key:
# Assay in all cases: glycan array binding signal (z-score within array); higher = stronger binding
# Conditions in all cases: glycan notation: IUPAC condensed, linker removed
# [1] = molecular target: Fuc(a1-2)[GalNAc(b1-3)]Gal
# Procedure, shortened: (§1)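 From the Consortium for Functional Glycomics database, 3228 arrays were curated, keeping only those whose protein sequence was available. Binding is given as a within-array Z-score averaged across arrays sharing a protein sequence and across linkers. Negative Z-scores can be read as non-binding.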
# Fuc(a1-3)GlcNAc = molecular target: Fuc(a1-3)GlcNAc
# Procedure, shortened: as §1
# [2] = molecular target: Fuc(a1-3)[Gal(b1-4)]Glc6S
# Procedure, shortened: as §1
# [3] = molecular target: Fuc(a1-3)[Gal(b1-4)]GlcNAc
# Procedure, shortened: as §1
# [4] = molecular target: Fuc(a1-3)[Gal(b1-4)]GlcNAc(b1-2)Man
# Procedure, shortened: as §1
# [5] = molecular target: Fuc(a1-3)[Gal(b1-4)]GlcNAc(b1-2)Man(a1-3)[Fuc(a1-3)[Gal(b1-4)]GlcNAc(b1-2)Man(a1-6)]Man(b1-4)GlcNAc(b1-4)GlcNAc
# Procedure, shortened: as §1
# [6] = molecular target: Fuc(a1-3)[Gal(b1-4)]GlcNAc(b1-2)Man(a1-3)[Fuc(a1-3)[Gal(b1-4)]GlcNAc(b1-2)Man(a1-6)]Man(b1-4)GlcNAc(b1-4)[Fuc(a1-6)]GlcNAc
# Procedure, shortened: as §1
# [7] = molecular target: Fuc(a1-3)[Gal(b1-4)]GlcNAc(b1-3)Gal(b1-3)[Fuc(a1-4)]GlcNAc
# Procedure, shortened: as §1
# [8] = molecular target: Fuc(a1-3)[Gal(b1-4)]GlcNAc(b1-3)Gal(b1-4)[Fuc(a1-3)]GlcNAc
# Procedure, shortened: as §1
# [9] = molecular target: Fuc(a1-3)[Gal(b1-4)]GlcNAc(b1-3)Gal(b1-4)[Fuc(a1-3)]GlcNAc(b1-3)Gal(b1-4)[Fuc(a1-3)]GlcNAc
# Procedure, shortened: as §1
# [10] = molecular target: Fuc(a1-3)[Gal(b1-4)]GlcNAc(b1-3)GalNAc
# Procedure, shortened: as §1
# [11] = molecular target: Fuc(a1-3)[Gal(b1-4)]GlcNAc(b1-6)GalNAc
# Procedure, shortened: as §1
# [12] = molecular target: Fuc(a1-3)[Gal(b1-4)]GlcNAc(b1-6)[Gal(b1-3)GlcNAc(b1-3)]Gal(b1-4)Glc
# Procedure, shortened: as §1
# [13] = molecular target: Fuc(a1-3)[Gal(b1-4)]GlcNAc6S
# Procedure, shortened: as §1
# [14] = molecular target: Fuc(a1-3)[Gal3S(b1-4)]Glc
# Procedure, shortened: as §1
# [15] = molecular target: Fuc(a1-3)[Gal3S(b1-4)]GlcNAc
# Procedure, shortened: as §1
# [16] = molecular target: Fuc(a1-3)[Gal3S(b1-4)]GlcNAc6S
# Procedure, shortened: as §1
# [17] = molecular target: Fuc(a1-3)[GalNAc(b1-4)]GlcNAc
# Procedure, shortened: as §1
# [18] = molecular target: Fuc(a1-3)[GalNAc(b1-4)]GlcNAc6S
# Procedure, shortened: as §1
# Fuc(a1-4)GlcNAc = molecular target: Fuc(a1-4)GlcNAc
# Procedure, shortened: as §1
# Fuc(b1-3)GlcNAc = molecular target: Fuc(b1-3)GlcNAc
# Procedure, shortened: as §1
# Gal(a1-2)Gal = molecular target: Gal(a1-2)Gal
# Procedure, shortened: as §1
# Gal(a1-3)Gal = molecular target: Gal(a1-3)Gal
# Procedure, shortened: as §1
# Gal(a1-3)Gal(b1-3)GlcNAc = molecular target: Gal(a1-3)Gal(b1-3)GlcNAc
# Procedure, shortened: as §1
# [19] = molecular target: Gal(a1-3)Gal(b1-3)GlcNAc(b1-2)Man
# Procedure, shortened: as §1
# [20] = molecular target: Gal(a1-3)Gal(b1-3)GlcNAc(b1-2)Man(a1-3)[Gal(a1-3)Gal(b1-3)GlcNAc(b1-2)Man(a1-6)]Man(b1-4)GlcNAc(b1-4)GlcNAc
# Procedure, shortened: as §1
# [21] = molecular target: Gal(a1-3)Gal(b1-3)GlcNAc(b1-3)GalNAc
# Procedure, shortened: as §1
# [22] = molecular target: Gal(a1-3)Gal(b1-3)GlcNAc(b1-6)GalNAc
# Procedure, shortened: as §1
# [23] = molecular target: Gal(a1-3)Gal(b1-3)[Fuc(a1-4)]GlcNAc(b1-2)Man(a1-3)[Gal(a1-3)Gal(b1-3)[Fuc(a1-4)]GlcNAc(b1-2)Man(a1-6)]Man(b1-4)GlcNAc(b1-4)GlcNAc
# Procedure, shortened: as §1
# Gal(a1-3)Gal(b1-4)Glc = molecular target: Gal(a1-3)Gal(b1-4)Glc
# Procedure, shortened: as §1
# Gal(a1-3)Gal(b1-4)GlcNAc = molecular target: Gal(a1-3)Gal(b1-4)GlcNAc
# Procedure, shortened: as §1
# [24] = molecular target: Gal(a1-3)Gal(b1-4)GlcNAc(b1-2)Man
# Procedure, shortened: as §1
# [25] = molecular target: Gal(a1-3)Gal(b1-4)GlcNAc(b1-2)Man(a1-3)[Gal(a1-3)Gal(b1-4)GlcNAc(b1-2)Man(a1-6)]Man(b1-4)GlcNAc(b1-4)GlcNAc
# Procedure, shortened: as §1
# [26] = molecular target: Gal(a1-3)Gal(b1-4)GlcNAc(b1-3)GalNAc
# Procedure, shortened: as §1
# [27] = molecular target: Gal(a1-3)Gal(b1-4)GlcNAc(b1-6)GalNAc
# Procedure, shortened: as §1
# [28] = molecular target: Gal(a1-3)Gal(b1-4)[Fuc(a1-3)]GlcNAc
# Procedure, shortened: as §1
# [29] = molecular target: Gal(a1-3)Gal(b1-4)[Fuc(a1-3)]GlcNAc(b1-2)Man(a1-3)[Gal(a1-3)Gal(b1-4)[Fuc(a1-3)]GlcNAc(b1-2)Man(a1-6)]Man(b1-4)GlcNAc(b1-4)GlcNAc
# Procedure, shortened: as §1
binder,measurement,setting,value
B1,glycan array binding signal (z-score),[1],0.807
same,glycan array binding signal (z-score),Fuc(a1-3)GlcNAc,-0.341
same,glycan array binding signal (z-score),[2],-0.406
same,glycan array binding signal (z-score),[3],-0.312
same,glycan array binding signal (z-score),[4],-0.27
same,glycan array binding signal (z-score),[5],-0.087
same,glycan array binding signal (z-score),[6],0.044
same,glycan array binding signal (z-score),[7],0.623
same,glycan array binding signal (z-score),[8],0.117
same,glycan array binding signal (z-score),[9],0.478
same,glycan array binding signal (z-score),[10],-0.031
same,glycan array binding signal (z-score),[11],-0.064
same,glycan array binding signal (z-score),[12],-0.405
same,glycan array binding signal (z-score),[13],0.225
same,glycan array binding signal (z-score),[14],-0.147
same,glycan array binding signal (z-score),[15],0.076
same,glycan array binding signal (z-score),[16],-0.017
same,glycan array binding signal (z-score),[17],0.252
same,glycan array binding signal (z-score),[18],-0.174
same,glycan array binding signal (z-score),Fuc(a1-4)GlcNAc,0.106
same,glycan array binding signal (z-score),Fuc(b1-3)GlcNAc,-0.541
same,glycan array binding signal (z-score),Gal(a1-2)Gal,-0.211
same,glycan array binding signal (z-score),Gal(a1-3)Gal,-0.466
same,glycan array binding signal (z-score),Gal(a1-3)Gal(b1-3)GlcNAc,0.863
same,glycan array binding signal (z-score),[19],-0.179
same,glycan array binding signal (z-score),[20],-0.175
same,glycan array binding signal (z-score),[21],-0.914
same,glycan array binding signal (z-score),[22],-0.304
same,glycan array binding signal (z-score),[23],0.28
same,glycan array binding signal (z-score),Gal(a1-3)Gal(b1-4)Glc,-0.219
same,glycan array binding signal (z-score),Gal(a1-3)Gal(b1-4)GlcNAc,-0.36
same,glycan array binding signal (z-score),[24],-0.667
same,glycan array binding signal (z-score),[25],-0.094
same,glycan array binding signal (z-score),[26],-0.333
same,glycan array binding signal (z-score),[27],0.284
same,glycan array binding signal (z-score),[28],-0.657
same,glycan array binding signal (z-score),[29],-0.001

# Rewritten bar-delimited: part of the list above
binder | measurement | setting | value
B1 | glycan array binding signal (z-score) | [4] | -0.27
same | glycan array binding signal (z-score) | Gal(a1-3)Gal(b1-4)GlcNAc | -0.36
